Source: the supplement of paper PMC10849652
The list shows a part of the results.

Amino acid sequences for entries named in this document (tags omitted). A change or cut given only in a name is not applied to a line headed by its entry.
UniProt Q92625: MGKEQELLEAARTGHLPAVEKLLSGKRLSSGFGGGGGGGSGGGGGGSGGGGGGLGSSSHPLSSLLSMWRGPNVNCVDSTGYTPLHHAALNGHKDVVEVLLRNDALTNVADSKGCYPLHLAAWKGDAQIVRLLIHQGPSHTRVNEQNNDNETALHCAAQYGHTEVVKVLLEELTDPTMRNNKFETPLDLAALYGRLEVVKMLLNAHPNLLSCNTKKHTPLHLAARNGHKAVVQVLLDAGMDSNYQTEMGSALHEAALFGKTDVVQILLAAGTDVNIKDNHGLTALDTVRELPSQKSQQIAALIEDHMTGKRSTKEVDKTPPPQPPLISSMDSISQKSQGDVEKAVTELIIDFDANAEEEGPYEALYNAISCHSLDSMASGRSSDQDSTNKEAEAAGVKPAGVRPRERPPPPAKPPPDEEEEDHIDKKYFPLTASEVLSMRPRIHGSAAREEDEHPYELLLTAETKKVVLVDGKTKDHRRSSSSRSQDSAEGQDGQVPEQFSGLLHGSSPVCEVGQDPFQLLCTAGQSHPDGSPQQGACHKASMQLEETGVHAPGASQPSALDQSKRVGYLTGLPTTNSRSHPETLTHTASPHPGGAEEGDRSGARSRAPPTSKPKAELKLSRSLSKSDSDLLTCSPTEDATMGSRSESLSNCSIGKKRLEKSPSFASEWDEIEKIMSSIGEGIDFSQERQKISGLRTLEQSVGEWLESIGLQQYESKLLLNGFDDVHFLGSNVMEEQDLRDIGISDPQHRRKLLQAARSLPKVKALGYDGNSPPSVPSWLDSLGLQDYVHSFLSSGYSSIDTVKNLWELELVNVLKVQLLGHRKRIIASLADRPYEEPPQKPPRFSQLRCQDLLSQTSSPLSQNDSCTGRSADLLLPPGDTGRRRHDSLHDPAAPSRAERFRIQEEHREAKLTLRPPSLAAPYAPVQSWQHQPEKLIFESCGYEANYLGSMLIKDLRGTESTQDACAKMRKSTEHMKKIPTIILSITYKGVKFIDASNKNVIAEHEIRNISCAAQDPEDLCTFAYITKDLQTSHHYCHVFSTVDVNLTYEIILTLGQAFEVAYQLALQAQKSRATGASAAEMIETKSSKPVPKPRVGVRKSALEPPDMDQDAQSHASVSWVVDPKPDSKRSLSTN
UniProt P31749: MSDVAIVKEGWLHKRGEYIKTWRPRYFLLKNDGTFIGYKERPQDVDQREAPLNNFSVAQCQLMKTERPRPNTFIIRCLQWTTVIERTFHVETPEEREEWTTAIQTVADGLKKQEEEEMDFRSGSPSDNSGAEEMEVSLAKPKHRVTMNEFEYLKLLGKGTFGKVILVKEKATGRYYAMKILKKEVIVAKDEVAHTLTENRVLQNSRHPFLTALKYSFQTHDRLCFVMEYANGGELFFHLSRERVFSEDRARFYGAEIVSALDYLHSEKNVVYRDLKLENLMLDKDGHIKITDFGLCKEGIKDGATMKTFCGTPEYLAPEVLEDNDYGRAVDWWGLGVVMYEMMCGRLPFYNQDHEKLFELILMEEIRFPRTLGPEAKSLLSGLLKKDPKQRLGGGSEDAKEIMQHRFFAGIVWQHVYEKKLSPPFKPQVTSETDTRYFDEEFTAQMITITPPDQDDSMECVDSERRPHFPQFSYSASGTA
UniProt P04075: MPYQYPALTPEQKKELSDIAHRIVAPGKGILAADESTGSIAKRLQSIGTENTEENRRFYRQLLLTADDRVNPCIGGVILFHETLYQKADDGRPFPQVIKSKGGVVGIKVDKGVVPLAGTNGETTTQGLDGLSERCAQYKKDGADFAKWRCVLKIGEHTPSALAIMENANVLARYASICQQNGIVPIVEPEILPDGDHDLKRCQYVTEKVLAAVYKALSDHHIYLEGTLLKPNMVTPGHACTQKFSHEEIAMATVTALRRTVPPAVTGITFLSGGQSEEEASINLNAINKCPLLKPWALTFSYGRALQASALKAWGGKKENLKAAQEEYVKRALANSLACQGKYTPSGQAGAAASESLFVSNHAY
UniProt Q96BT7: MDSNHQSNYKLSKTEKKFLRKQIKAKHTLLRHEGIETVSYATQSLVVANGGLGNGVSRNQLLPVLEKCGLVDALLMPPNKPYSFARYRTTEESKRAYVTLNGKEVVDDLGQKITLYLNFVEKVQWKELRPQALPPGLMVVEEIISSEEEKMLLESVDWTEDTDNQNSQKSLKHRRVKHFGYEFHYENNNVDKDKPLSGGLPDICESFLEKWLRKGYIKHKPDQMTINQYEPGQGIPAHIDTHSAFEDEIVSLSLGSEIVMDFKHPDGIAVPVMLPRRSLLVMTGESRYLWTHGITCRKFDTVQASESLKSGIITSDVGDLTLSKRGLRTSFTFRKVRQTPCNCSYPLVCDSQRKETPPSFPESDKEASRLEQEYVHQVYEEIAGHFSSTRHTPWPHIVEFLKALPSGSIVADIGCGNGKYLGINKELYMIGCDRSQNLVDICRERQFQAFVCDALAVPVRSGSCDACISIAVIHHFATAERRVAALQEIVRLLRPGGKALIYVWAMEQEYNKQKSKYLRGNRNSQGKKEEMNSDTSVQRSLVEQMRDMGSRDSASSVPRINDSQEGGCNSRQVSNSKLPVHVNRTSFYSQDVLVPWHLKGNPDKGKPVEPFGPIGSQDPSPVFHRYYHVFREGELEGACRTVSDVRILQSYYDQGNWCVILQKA
UniProt Q9Y4X0: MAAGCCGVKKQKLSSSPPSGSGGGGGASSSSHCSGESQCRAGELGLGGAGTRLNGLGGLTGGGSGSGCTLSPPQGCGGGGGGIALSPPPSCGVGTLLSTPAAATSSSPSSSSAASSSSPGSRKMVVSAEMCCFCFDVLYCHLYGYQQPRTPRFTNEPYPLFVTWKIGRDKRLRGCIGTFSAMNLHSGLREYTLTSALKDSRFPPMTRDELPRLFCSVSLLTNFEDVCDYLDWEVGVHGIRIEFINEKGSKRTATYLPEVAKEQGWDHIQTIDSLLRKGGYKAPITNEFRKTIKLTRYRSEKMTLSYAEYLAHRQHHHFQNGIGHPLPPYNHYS
UniProt Q8IZ83: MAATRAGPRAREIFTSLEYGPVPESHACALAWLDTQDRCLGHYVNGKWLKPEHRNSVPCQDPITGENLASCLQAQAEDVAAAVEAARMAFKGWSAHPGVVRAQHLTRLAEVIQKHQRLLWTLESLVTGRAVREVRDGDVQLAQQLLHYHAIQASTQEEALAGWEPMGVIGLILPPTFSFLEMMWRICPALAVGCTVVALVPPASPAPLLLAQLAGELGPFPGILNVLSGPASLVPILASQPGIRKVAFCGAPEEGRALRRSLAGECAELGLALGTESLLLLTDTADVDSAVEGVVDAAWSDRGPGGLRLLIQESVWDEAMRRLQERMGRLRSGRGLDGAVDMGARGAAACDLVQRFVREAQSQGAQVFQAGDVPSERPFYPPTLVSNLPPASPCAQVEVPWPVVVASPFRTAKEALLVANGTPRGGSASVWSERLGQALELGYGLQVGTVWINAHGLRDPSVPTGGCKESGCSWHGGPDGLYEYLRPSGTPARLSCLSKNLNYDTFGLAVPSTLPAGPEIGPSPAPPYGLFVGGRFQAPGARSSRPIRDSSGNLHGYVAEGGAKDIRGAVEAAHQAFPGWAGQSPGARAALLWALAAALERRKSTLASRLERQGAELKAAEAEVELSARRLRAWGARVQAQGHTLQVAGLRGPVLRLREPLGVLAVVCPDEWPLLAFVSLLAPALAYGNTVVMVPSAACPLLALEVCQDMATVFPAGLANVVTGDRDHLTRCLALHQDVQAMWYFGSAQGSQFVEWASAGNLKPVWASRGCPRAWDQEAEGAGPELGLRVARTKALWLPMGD
UniProt Q9H6U8: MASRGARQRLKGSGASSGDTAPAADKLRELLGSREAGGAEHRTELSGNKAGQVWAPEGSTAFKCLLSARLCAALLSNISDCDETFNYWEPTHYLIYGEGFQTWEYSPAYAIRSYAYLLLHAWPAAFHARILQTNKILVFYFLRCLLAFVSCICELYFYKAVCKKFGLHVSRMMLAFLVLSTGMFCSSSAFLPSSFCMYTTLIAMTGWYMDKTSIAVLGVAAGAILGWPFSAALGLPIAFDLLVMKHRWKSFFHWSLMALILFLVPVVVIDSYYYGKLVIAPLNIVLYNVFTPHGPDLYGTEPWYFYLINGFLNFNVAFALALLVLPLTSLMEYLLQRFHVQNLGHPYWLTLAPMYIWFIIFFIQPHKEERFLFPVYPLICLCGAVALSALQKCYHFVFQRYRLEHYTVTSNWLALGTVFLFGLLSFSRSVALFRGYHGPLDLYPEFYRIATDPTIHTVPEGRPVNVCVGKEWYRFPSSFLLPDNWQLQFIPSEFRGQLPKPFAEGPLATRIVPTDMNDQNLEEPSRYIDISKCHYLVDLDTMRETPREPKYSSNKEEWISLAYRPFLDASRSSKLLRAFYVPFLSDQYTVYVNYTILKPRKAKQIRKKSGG
UniProt Q01433: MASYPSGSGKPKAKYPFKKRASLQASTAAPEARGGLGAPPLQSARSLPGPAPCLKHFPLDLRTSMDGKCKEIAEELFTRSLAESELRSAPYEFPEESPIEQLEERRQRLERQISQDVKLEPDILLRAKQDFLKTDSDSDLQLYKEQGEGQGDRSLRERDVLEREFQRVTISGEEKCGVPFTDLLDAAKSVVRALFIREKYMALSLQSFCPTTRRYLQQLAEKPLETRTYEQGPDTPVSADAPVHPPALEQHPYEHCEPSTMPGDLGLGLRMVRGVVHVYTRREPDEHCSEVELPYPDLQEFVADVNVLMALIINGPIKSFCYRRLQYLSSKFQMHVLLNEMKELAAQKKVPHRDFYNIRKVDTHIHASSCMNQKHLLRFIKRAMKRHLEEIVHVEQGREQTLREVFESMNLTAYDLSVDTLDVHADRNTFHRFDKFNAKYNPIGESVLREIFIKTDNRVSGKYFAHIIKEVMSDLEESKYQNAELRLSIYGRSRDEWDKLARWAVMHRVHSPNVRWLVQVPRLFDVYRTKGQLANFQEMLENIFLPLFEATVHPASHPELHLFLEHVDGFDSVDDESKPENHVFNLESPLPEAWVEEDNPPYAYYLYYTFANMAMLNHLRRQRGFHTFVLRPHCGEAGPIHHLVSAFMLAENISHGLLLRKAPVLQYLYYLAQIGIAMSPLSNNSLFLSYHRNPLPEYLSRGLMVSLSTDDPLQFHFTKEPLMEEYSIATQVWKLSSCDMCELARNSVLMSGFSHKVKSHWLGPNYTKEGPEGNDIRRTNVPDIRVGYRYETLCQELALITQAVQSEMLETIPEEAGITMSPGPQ
UniProt Q8NB46: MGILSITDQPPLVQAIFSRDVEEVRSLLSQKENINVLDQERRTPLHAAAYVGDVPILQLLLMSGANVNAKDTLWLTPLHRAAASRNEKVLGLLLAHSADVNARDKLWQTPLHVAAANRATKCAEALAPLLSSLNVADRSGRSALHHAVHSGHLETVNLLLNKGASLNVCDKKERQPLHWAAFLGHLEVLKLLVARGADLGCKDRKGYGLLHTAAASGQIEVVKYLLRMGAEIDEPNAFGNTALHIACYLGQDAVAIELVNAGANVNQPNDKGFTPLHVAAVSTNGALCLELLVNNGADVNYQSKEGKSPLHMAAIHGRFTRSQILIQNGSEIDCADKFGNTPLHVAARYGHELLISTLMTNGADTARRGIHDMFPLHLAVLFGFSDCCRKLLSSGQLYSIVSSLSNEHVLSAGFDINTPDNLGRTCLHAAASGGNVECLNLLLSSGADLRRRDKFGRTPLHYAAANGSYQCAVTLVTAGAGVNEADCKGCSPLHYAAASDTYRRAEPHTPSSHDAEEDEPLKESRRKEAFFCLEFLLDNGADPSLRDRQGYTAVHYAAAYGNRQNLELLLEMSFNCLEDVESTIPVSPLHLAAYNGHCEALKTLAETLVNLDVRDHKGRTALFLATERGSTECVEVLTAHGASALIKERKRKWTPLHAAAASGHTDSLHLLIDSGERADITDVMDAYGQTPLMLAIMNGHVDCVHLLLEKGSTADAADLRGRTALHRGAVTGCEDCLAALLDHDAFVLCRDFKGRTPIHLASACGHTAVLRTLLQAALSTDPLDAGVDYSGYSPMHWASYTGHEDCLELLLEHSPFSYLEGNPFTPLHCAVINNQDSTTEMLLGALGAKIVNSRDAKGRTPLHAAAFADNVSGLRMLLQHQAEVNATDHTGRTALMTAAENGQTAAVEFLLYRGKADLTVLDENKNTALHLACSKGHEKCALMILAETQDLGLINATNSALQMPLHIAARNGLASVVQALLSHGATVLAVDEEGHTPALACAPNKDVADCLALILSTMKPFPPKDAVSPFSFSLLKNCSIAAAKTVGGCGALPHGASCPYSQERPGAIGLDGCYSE

How the values were obtained:
Test in all cases: log2 fold change, soluble protein after heating vs DMSO (PISA); higher = thermal stabilisation; K562 lysate, 10 uM; active = over 0.2 and 3.5 SD of the protein, either way, in both replicates (recomputed)
ibrutinib = compound: C=CC(=O)N1CCC[C@@H](n2nc(-c3ccc(Oc4ccccc4)cc3)c3c(N)ncnc32)C1 [ibrutinib]
Procedure, shortened: (§1)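 The values are log-two fold changes in thermal stability compared with solvent controls and come from duplicates. They were obtained by TMTpro 16plex LC-MS/MS, with channel sums equalised, on the supernatant after 21,000xg for 90 min. That supernatant came from crude K562 extract at 1 mg/mL protein treated with 10 μM compound for 30 min, heated for 3 min across 48°C-58°C, pooled and brought to 0.5% NP-40 at 4°C.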

[1] = compound: CC(=O)c1cnc2ccc(-c3cc(Cl)c(O)c(Cl)c3)nc2c1N[C@H]1CC[C@H](CN(C)C)CC1
Procedure, shortened: as §1

ralimetinib = compound: CC(C)(C)Cn1c(N)nc2ccc(-c3[nH]c(C(C)(C)C)nc3-c3ccc(F)cc3)nc21 [ralimetinib]
Procedure, shortened: as §1

[2] = compound: CC(C)(O)CC(=O)NCCn1ccc2ncnc(Nc3ccc(Oc4cccc(C(F)(F)F)c4)c(Cl)c3)c21
Procedure, shortened: as §1

[3] = compound: CC(C)C1=C2N=C(C=C(N2N=C1)NCC3=CC=CC=C3)NCCCCCCN
Procedure, shortened: as §1

[4] = compound: CC1=C(C(CC(=O)N1)C2=CC=C(C=C2)C(F)(F)F)C(=O)NC3=C(C=C4C(=C3)C=NN4)F
Procedure, shortened: as §1

[5] = compound: CC1=C(C2=C(C=C1)C(=O)C3=CC=CC=C3N2CCCN)C
Procedure, shortened: as §1

[6] = compound: CC1=C(C=C(C=C1)NC(=O)C2=CC(=CC=C2)C(C)(C)C#N)NC3=CC4=C(C=C3)N=CN(C4=O)C
Procedure, shortened: as §1

[7] = compound: CC1=C(C=C(C=C1)NC(=O)C2=CC(=CC=C2)N(C)C)NC(=O)C3=CC=C(C=C3)O
Procedure, shortened: as §1

[8] = compound: CC1=CC=C(C=C1)SC2=C3C=C(SC3=CN=C2)C(=O)N
Procedure, shortened: as §1

vemurafenib = compound: CCCS(=O)(=O)Nc1ccc(F)c(C(=O)c2c[nH]c3ncc(-c4ccc(Cl)cc4)cc23)c1F [vemurafenib]
Procedure, shortened: as §1

[9] = compound: CCCS(=O)(=O)Nc1ccc(F)c(C(=O)c2c[nH]c3ncc(Cl)cc23)c1F
Procedure, shortened: as §1

barasertib = compound: CCN(CCCOc1ccc2c(Nc3cc(CC(=O)Nc4cccc(F)c4)[nH]n3)ncnc2c1)CCOP(=O)(O)O [barasertib]
Procedure, shortened: as §1

[10] = compound: CC[C@@H]1C(=O)N(C)c2cnc(Nc3ccc(C(=O)NC4CCN(C)CC4)cc3OC)nc2N1C1CCCC1
Procedure, shortened: as §1

volasertib = compound: CC[C@@H]1C(=O)N(C)c2cnc(Nc3ccc(C(=O)N[C@H]4CC[C@H](N5CCN(CC6CC6)CC5)CC4)cc3OC)nc2N1C(C)C [volasertib]
Procedure, shortened: as §1

[11] = compound: CCn1c(C(=O)N(C2CC2)C2CC2)cc2c3c(ncn3C)c(Nc3cc(C)n(C)n3)nc21
Procedure, shortened: as §1

[12] = compound: CCn1cc(-c2ccnc3[nH]c(-c4cccc(CN(C)C)c4)cc23)c(-c2ccc(NC(=O)N(C)C)cc2)n1
Procedure, shortened: as §1

[13] = compound: CN1CCC(CNc2ccc3ncc(-c4cccc(OC(F)(F)F)c4)n3n2)CC1
Procedure, shortened: as §1

saracatinib = compound: CN1CCN(CCOc2cc(OC3CCOCC3)c3c(Nc4c(Cl)ccc5c4OCO5)ncnc3c2)CC1 [saracatinib]
Procedure, shortened: as §1

sotrastaurin = compound: CN1CCN(c2nc(C3=C(c4c[nH]c5ccccc45)C(=O)NC3=O)c3ccccc3n2)CC1 [sotrastaurin]
Procedure, shortened: as §1

Row | Target | log2 fold change (ibrutinib) | log2 fold change [1] | log2 fold change (ralimetinib) | log2 fold change [2] | log2 fold change [3] | log2 fold change [4] | log2 fold change [5] | log2 fold change [6] | log2 fold change [7] | log2 fold change [8] | log2 fold change (vemurafenib) | log2 fold change [9] | log2 fold change (barasertib) | log2 fold change [10] | log2 fold change (volasertib) | log2 fold change [11] | log2 fold change [12] | log2 fold change [13] | log2 fold change (saracatinib) | log2 fold change (sotrastaurin)
1 | ANKFY1 isoform 4 (UniProt Q9P2R3) | inactive: -0.014 | inactive: -0.014 | inactive: -0.002 | inactive: -0.028 | inactive: -0.007 | inactive: 0.033 | inactive: -0.004 | inactive: 0.04 | inactive: 0.046 | inactive: -0.016 | inactive: 0.079 | inactive: 0.007 | inactive: 0.049 | inactive: -0.029 | inactive: -0.028 | inactive: 0.014 | inactive: -0.014 | inactive: -0.052 | inactive: 0.006 | inactive: -0.018
2 | ANKS1A (UniProt Q92625) | inactive: 0.032 | inactive: 0.022 | inactive: -0.009 | inactive: -0.032 | inactive: 0.031 | inactive: -0.002 | inactive: 0.008 | inactive: 0.042 | inactive: -0.015 | inactive: 0.008 | inactive: -0.008 | inactive: 0.044 | inactive: 0.067 | inactive: -0.088 | inactive: -0.029 | inactive: -0.047 | inactive: -0.265 | inactive: 0.022 | inactive: 0.031 | inactive: 0.004
3 | AKT1 (UniProt P31749) | inactive: 0.028 | inactive: 0.013 | inactive: 0.005 | inactive: -0.023 | inactive: 0.009 | inactive: 0.003 | inactive: -0.009 | inactive: 0 | inactive: -0.006 | inactive: 0.019 | inactive: 0.071 | inactive: 0.011 | inactive: -0.023 | inactive: -0.019 | inactive: -0.026 | inactive: -0.031 | inactive: -0.068 | inactive: 0.055 | inactive: 0.055 | inactive: 0.051
4 | AP2A2 isoform 2 (UniProt O94973) | inactive: 0.077 | inactive: 0.002 | inactive: 0.03 | inactive: -0.009 | inactive: 0.018 | inactive: -0.014 | inactive: 0.017 | inactive: 0.026 | inactive: 0.001 | inactive: -0.011 | inactive: 0.012 | inactive: 0.061 | inactive: 0.104 | inactive: 0.011 | inactive: 0.004 | inactive: -0.017 | inactive: -0.044 | inactive: 0.016 | inactive: -0.022 | inactive: 0.04
5 | AP1G1 isoform 2 (UniProt O43747) | inactive: -0.017 | inactive: -0.014 | inactive: 0.012 | inactive: -0.016 | inactive: -0.036 | inactive: -0.022 | inactive: 0.008 | inactive: 0.013 | inactive: -0.044 | inactive: -0.007 | inactive: -0.008 | inactive: 0.026 | inactive: 0.014 | inactive: 0.008 | inactive: 0.012 | inactive: -0.027 | inactive: -0.096 | inactive: 0.066 | inactive: -0.014 | inactive: 0.014
6 | ALDOA (UniProt P04075) | inactive: 0.025 | inactive: -0.007 | inactive: 0.016 | inactive: 0.007 | inactive: 0.012 | inactive: -0.032 | inactive: 0.012 | inactive: 0.034 | inactive: -0.002 | inactive: -0.035 | inactive: -0.015 | inactive: 0.024 | inactive: -0.053 | inactive: 0.006 | inactive: 0.038 | inactive: -0.019 | inactive: -0.051 | inactive: 0.088 | inactive: 0.003 | inactive: -0.018
7 | ALKBH8 isoform 4 (UniProt Q96BT7) | inactive: 0.025 | inactive: -0.004 | inactive: 0.012 | inactive: -0.03 | inactive: 0.046 | inactive: 0.032 | inactive: -0.073 | inactive: -0.015 | inactive: 0.014 | inactive: 0.005 | inactive: 0.033 | inactive: 0.02 | inactive: 0.043 | inactive: 0.046 | inactive: -0.039 | inactive: -0.059 | inactive: -0.058 | inactive: 0.132 | inactive: 0.01 | inactive: 0.025
8 | AMMECR1 (UniProt Q9Y4X0) | inactive: -0.021 | inactive: -0.008 | inactive: 0.006 | inactive: -0.016 | inactive: 0.014 | inactive: 0.009 | inactive: -0.01 | inactive: -0.003 | inactive: -0.027 | inactive: -0.039 | inactive: 0.067 | inactive: 0 | inactive: 0.008 | inactive: -0.019 | inactive: -0.03 | inactive: -0.026 | inactive: -0.012 | inactive: 0.032 | inactive: 0 | inactive: 0.008
9 | ANXA4 (UniProt P09525) | inactive: -0.006 | inactive: -0.024 | inactive: -0.006 | inactive: 0.012 | inactive: -0.027 | inactive: -0.019 | inactive: 0.044 | inactive: -0.025 | inactive: 0.017 | inactive: -0.007 | inactive: -0.025 | inactive: 0 | inactive: 0.011 | inactive: -0.05 | inactive: -0.02 | inactive: 0.004 | inactive: -0.048 | inactive: -0.005 | inactive: 0.021 | inactive: 0.025
10 | ALDH16A1 (UniProt Q8IZ83) | inactive: 0.037 | inactive: -0.006 | inactive: 0.033 | inactive: 0.004 | inactive: -0.046 | inactive: 0 | inactive: -0.036 | inactive: 0.002 | inactive: 0.022 | inactive: -0.01 | inactive: -0.025 | inactive: 0.041 | inactive: -0.014 | inactive: -0.063 | inactive: 0.013 | inactive: -0.019 | inactive: -0.031 | inactive: 0.06 | inactive: 0.008 | inactive: 0.003
11 | AP4E1 (UniProt Q9UPM8) | inactive: -0.037 | inactive: -0.056 | inactive: 0.038 | inactive: -0.013 | inactive: 0.038 | inactive: 0.035 | inactive: 0.006 | inactive: -0.007 | inactive: 0.016 | inactive: -0.049 | inactive: -0.039 | inactive: 0.047 | inactive: 0.041 | inactive: -0.07 | inactive: -0.042 | inactive: -0.007 | inactive: -0.091 | inactive: 0.019 | inactive: 0.014 | inactive: 0.005
12 | ALG9 isoform 3 (UniProt Q9H6U8) | inactive: -0.047 | inactive: 0.031 | inactive: -0.014 | inactive: 0.027 | inactive: -0.096 | inactive: 0.04 | inactive: -0.04 | inactive: -0.049 | inactive: -0.021 | inactive: -0.022 | inactive: -0.036 | inactive: 0.008 | inactive: 0.003 | inactive: 0.056 | inactive: -0.006 | inactive: 0.013 | inactive: -0.115 | inactive: 0.12 | inactive: -0.107 | inactive: 0.016
13 | ANXA5 (UniProt P08758) | inactive: -0.009 | inactive: -0.005 | inactive: 0.014 | inactive: 0.038 | inactive: -0.026 | inactive: 0.007 | inactive: 0.032 | inactive: -0.024 | inactive: 0 | inactive: 0.005 | inactive: -0.034 | inactive: -0.011 | inactive: 0.003 | inactive: -0.073 | inactive: -0.001 | inactive: 0.059 | inactive: 0.022 | inactive: -0.064 | inactive: -0.008 | inactive: 0.024
14 | AMPD2 (UniProt Q01433) | inactive: -0.01 | inactive: -0.004 | inactive: 0.007 | inactive: -0.009 | inactive: -0.028 | inactive: -0.009 | inactive: 0.01 | inactive: -0.021 | inactive: -0.012 | inactive: 0.006 | inactive: -0.017 | inactive: -0.005 | inactive: -0.016 | inactive: 0.016 | inactive: 0.017 | inactive: -0.003 | inactive: -0.035 | inactive: 0.028 | inactive: -0.004 | inactive: 0.026
15 | ALG6 (UniProt Q9Y672) | inactive: -0.023 | inactive: 0.019 | inactive: 0.105 | inactive: -0.302 | inactive: 0.031 | inactive: 0.019 | inactive: 0 | inactive: 0.122 | inactive: -0.038 | inactive: 0 | inactive: 0.052 | inactive: 0.006 | inactive: 0.058 | inactive: 0.038 | inactive: 0.088 | inactive: -0.185 | inactive: -0.119 | inactive: 0.035 | inactive: 0.085 | inactive: 0.017
16 | ANKRD52 (UniProt Q8NB46) | inactive: 0.01 | inactive: -0.089 | inactive: -0.002 | inactive: -0.025 | inactive: 0.022 | inactive: 0.007 | inactive: -0.058 | inactive: 0.011 | inactive: 0.047 | active: -0.363 | inactive: -0.052 | inactive: 0.032 | inactive: 0.029 | inactive: -0.019 | inactive: 0.097 | inactive: 0.063 | inactive: 0.061 | inactive: -0.015 | inactive: -0.022 | inactive: -0.008

Retrieved one by one from above (two):
Row | Target | log2 fold change (ibrutinib) | log2 fold change [1] | log2 fold change (ralimetinib) | log2 fold change [2] | log2 fold change [3] | log2 fold change [4] | log2 fold change [5] | log2 fold change [6] | log2 fold change [7] | log2 fold change [8] | log2 fold change (vemurafenib) | log2 fold change [9] | log2 fold change (barasertib) | log2 fold change [10] | log2 fold change (volasertib) | log2 fold change [11] | log2 fold change [12] | log2 fold change [13] | log2 fold change (saracatinib) | log2 fold change (sotrastaurin)
12 | ALG9 isoform 3 (UniProt Q9H6U8) | inactive: -0.047 | inactive: 0.031 | inactive: -0.014 | inactive: 0.027 | inactive: -0.096 | inactive: 0.04 | inactive: -0.04 | inactive: -0.049 | inactive: -0.021 | inactive: -0.022 | inactive: -0.036 | inactive: 0.008 | inactive: 0.003 | inactive: 0.056 | inactive: -0.006 | inactive: 0.013 | inactive: -0.115 | inactive: 0.12 | inactive: -0.107 | inactive: 0.016
16 | ANKRD52 (UniProt Q8NB46) | inactive: 0.01 | inactive: -0.089 | inactive: -0.002 | inactive: -0.025 | inactive: 0.022 | inactive: 0.007 | inactive: -0.058 | inactive: 0.011 | inactive: 0.047 | active: -0.363 | inactive: -0.052 | inactive: 0.032 | inactive: 0.029 | inactive: -0.019 | inactive: 0.097 | inactive: 0.063 | inactive: 0.061 | inactive: -0.015 | inactive: -0.022 | inactive: -0.008
